The exact form of at least one protein or probe is not confirmed.
Tested on: PkKKT2a central domain (C646 C649A) (Perkinsela CCAP 1560/4)
Assay: fluorescence anisotropy
Settings: similar affinity to wild type

“TGCATGTTATGCAAGAATGCGTGTTTTACACCAAAACACCTTACATATTG (double strand) [50 mer CEN (BA1674)]”: binds.

Reference: doi:10.1101/2019.12.13.875419
